In the test the test system is L1210 leukemia ip in BDF1 mice, survival T/C. The test can be described thus: NCI In Vivo Anticancer Drug Screen. Data for tumor model L1210 Leukemia (intraperitoneal) in B6D2F1 (BDF1) mice. Particulars: T/C endpoint: mean survival time, higher T/C = longer survival.
The mark [1] stands for this setting: dose: 200.0 mg/kg/injection, schedule: Q01DX Z (ip), vehicle: carboxymethylcellulose (CMC).
The mark [2] stands for this setting: dose: 300.0 mg/kg/injection, schedule: Q01DX Z (ip), vehicle: carboxymethylcellulose (CMC).
Setting [3] is: dose: 300.0 mg/kg/injection, schedule: Q01DX001 (ip), vehicle: carboxymethylcellulose (CMC).

Molecules are shown by their SMILES. The list does not hold the whole screen: it gathers tests that were run many times, whatever their T/C, doses with no T/C, and many T/C values between a quarter and a half above the control. Further doses and runs are listed elsewhere. T/C is the treated group as % of the vehicle group. Some doses have a count of surviving animals in place of a T/C: the source files T/C as zero there, which appears to mark a toxic dose or a test without result, not a measured value. Some survivor counts are full or nearly so, which does not show that the dose was tolerated: survival well below the control is almost never listed, so the zero probably covers shortened survival too. Survivors were counted at the toxicity check, usually on the fifth day, unless a day is given; later deaths do not show. Schedules are NCI's codes, taken here to give the interval after Q, in days (D) or hours (H), and the number of doses after X. Some schedule codes hold Z or #, which are not explained here. Where survival is the endpoint, the PubChem record calls one and a half times the control and up active, and a quarter to a half above the control has no call in these data; cut-offs in other NCI protocols can differ. Some entries were tested several times; the values are given in rising order. Some T/C values are followed by the survivors on the day toxicity was checked, most often the fifth; where none is given, no animal had died by that day.

For `CCOC(=O)C1=CN=NC1=[N+]=[N-]`, the survivor count reads like this: (dose: 40.0 mg/kg/injection, schedule: Q01DX001 (ip), vehicle: saline) 0 of 6; (dose: 75.0 mg/kg/injection, schedule: Q01DX001 (ip), vehicle: saline) 0 of 6; (dose: 150.0 mg/kg/injection, schedule: Q01DX001 (ip), vehicle: saline) 0 of 6; (dose: 300.0 mg/kg/injection, schedule: Q01DX001 (ip), vehicle: saline) 0 of 6.

As for `CNC(C)CC1CCCCC1` (stereo not given), the survivor count by setting is: (dose: 50.0 mg/kg/injection, schedule: Q04DX003 (ip), vehicle: saline with Tween-80) 2 of 4; (dose: 100.0 mg/kg/injection, schedule: Q01DX009 (ip), vehicle: saline) 3 of 6; (dose: 100.0 mg/kg/injection, schedule: Q04DX003 (ip), vehicle: saline with Tween-80) 0 of 4; (dose: 200.0 mg/kg/injection, schedule: Q01DX009 (ip), vehicle: saline) 0 of 6; (dose: 200.0 mg/kg/injection, schedule: Q04DX003 (ip), vehicle: saline with Tween-80) 0 of 4; (dose: 400.0 mg/kg/injection, schedule: Q01DX009 (ip), vehicle: saline) 0 of 6. Besides, the survivor count (dose: 400.0 mg/kg/injection, schedule: Q04DX003 (ip), vehicle: saline with Tween-80) is 0 of 4.

Regarding `CN(N=O)C(=O)NCCSSCCNC(=O)N(C)N=O`, the T/C runs as follows: (dose: 25.0 mg/kg/injection, schedule: Q01DX Z (ip), vehicle: carboxymethylcellulose (CMC)) 133 % of control; (dose: 30.0 mg/kg/injection, schedule: Q01DX011 (ip), vehicle: carboxymethylcellulose (CMC)) 132 % of control; (dose: 30.0 mg/kg/injection, schedule: Q01DX Z (ip), vehicle: carboxymethylcellulose (CMC)) 130 % of control; (dose: 35.0 mg/kg/injection, schedule: Q01DX Z (ip), vehicle: carboxymethylcellulose (CMC)) 130 % of control; (dose: 45.0 mg/kg/injection, schedule: Q01DX Z (ip), vehicle: carboxymethylcellulose (CMC)) 125 % of control [5 of 6 alive]; (dose: 50.0 mg/kg/injection, schedule: Q01DX Z (ip), vehicle: carboxymethylcellulose (CMC)) 143 % of control. Besides, the survivor count is, setting by setting: (dose: 100.0 mg/kg/injection, schedule: Q01DX Z (ip), vehicle: carboxymethylcellulose (CMC)) 5 of 6; under setting [1], 0 of 6; under setting [2], 0 of 6; (dose: 400.0 mg/kg/injection, schedule: Q01DX Z (ip), vehicle: carboxymethylcellulose (CMC)) 0 of 6.

Regarding `NNC(=S)Nc1cccc2ccccc12`, the survivor count under setting [3] is 3 of 6.

`[Cl][Ge]([Cl])([c]1ccccc1)[c]1ccccc1`: the survivor count is, setting by setting: (dose: 200.0 mg/kg/injection, schedule: Q01DX009 (ip), vehicle: Klucel (hydroxypropylcellulose) (HPC)) 5 of 6; (dose: 400.0 mg/kg/injection, schedule: Q04DX003 (ip), vehicle: Klucel (hydroxypropylcellulose) (HPC)) 1 of 6.

Regarding `Cc1c(-c2ccccc2)sc(N)c1C#N`, the survivor count is reported as 3 of 3 (dose: 100.0 mg/kg/injection, schedule: Q04DX002 (ip), vehicle: saline with Tween-80) and 3 of 3 (dose: 400.0 mg/kg/injection, schedule: Q04DX002 (ip), vehicle: saline with Tween-80).

Regarding `N#Cc1c(Cl)nsc1Cl`, under “dose: 400.0 mg/kg/injection, schedule: Q01DX009 (ip), vehicle: Klucel (hydroxypropylcellulose) (HPC)”, the survivor count is recorded as 3 of 6.

Turning to `Cc1ccc(NC(=O)N(CCCl)N=O)cc1NC(=O)c1ccccc1`, the T/C (dose: 0.9 mg/kg/injection, schedule: Q01DX009 (ip), vehicle: carboxymethylcellulose (CMC)) was 130 % of control; the T/C (dose: 1.8 mg/kg/injection, schedule: Q01DX009 (ip), vehicle: carboxymethylcellulose (CMC)) was 133 % of control; the T/C (dose: 3.0 mg/kg/injection, schedule: Q01DX009 (ip), vehicle: carboxymethylcellulose (CMC)) was 126 % of control; the T/C (dose: 4.4 mg/kg/injection, schedule: Q01DX009 (ip), vehicle: carboxymethylcellulose (CMC)) was 131 % of control; the T/C (dose: 6.7 mg/kg/injection, schedule: Q01DX009 (ip), vehicle: carboxymethylcellulose (CMC)) was 131 % of control; the T/C (dose: 10.0 mg/kg/injection, schedule: Q01DX009 (ip), vehicle: carboxymethylcellulose (CMC)) is 146 % of control [5 of 6 alive]. The T/C was 148 % of control (dose: 52.0 mg/kg/injection, schedule: Q01DX001 (ip), vehicle: Klucel (hydroxypropylcellulose) (HPC)); 143 % of control (dose: 53.0 mg/kg/injection, schedule: Q01DX001 (ip), vehicle: carboxymethylcellulose (CMC)); 138 % of control (dose: 80.0 mg/kg/injection, schedule: Q01DX001 (ip), vehicle: carboxymethylcellulose (CMC)); 139 % of control (dose: 120.0 mg/kg/injection, schedule: Q01DX001 (ip), vehicle: carboxymethylcellulose (CMC)); 139 and 146 % of control (dose: 177.0 mg/kg/injection, schedule: Q01DX001 (ip), vehicle: carboxymethylcellulose (CMC)); 125 and 144 % of control (dose: 177.0 mg/kg/injection, schedule: Q01DX009 (ip), vehicle: carboxymethylcellulose (CMC)). Further, the T/C is 146 % of control (dose: 266.0 mg/kg/injection, schedule: Q01DX001 (ip), vehicle: carboxymethylcellulose (CMC)); 141 % of control [5 of 6 alive] (dose: 266.0 mg/kg/injection, schedule: Q01DX009 (ip), vehicle: carboxymethylcellulose (CMC)); 148 % of control (dose: 600.0 mg/kg/injection, schedule: Q01DX001 (ip), vehicle: carboxymethylcellulose (CMC)). In addition, the survivor count (dose: 400.0 mg/kg/injection, schedule: Q01DX009 (ip), vehicle: carboxymethylcellulose (CMC)) is listed as 6 of 6.

`NC(=O)N(Cc1ccccc1)N=O`: the survivor count runs as follows: under setting [1], 6 of 6; (dose: 250.0 mg/kg/injection, schedule: Q01DX Z (ip), vehicle: carboxymethylcellulose (CMC)) 3 of 6; under setting [2], 0 of 6.

As for `CCC[n+]1nsc2ccccc21`, the survivor count was 0 of 6 (dose: 200.0 mg/kg/injection, schedule: Q01DX001 (ip), vehicle: saline) and 0 of 6 (dose: 400.0 mg/kg/injection, schedule: Q01DX001 (ip), vehicle: saline).

On to `Cc1[nH]nc(C(F)(F)F)c1N=NN1CCC(C(N)=O)CC1`, for which the survivor count is 5 of 6 (dose: 150.0 mg/kg/injection, schedule: Q01DX001 (ip), vehicle: carboxymethylcellulose (CMC)) and 1 of 6 under setting [3].

In the case of `N#CCCCN=[N+]=[N-]`, the survivor count runs as follows: (dose: 75.0 mg/kg/injection, schedule: Q04DX003 (ip), vehicle: saline) 3 of 6; (dose: 150.0 mg/kg/injection, schedule: Q04DX003 (ip), vehicle: saline) 0 of 6.

In the case of `NC(Cc1c[nH]c2ccccc12)C(=O)OCc1ccccc1` (stereo not given), the survivor count runs as follows: (dose: 50.0 mg/kg/injection, schedule: Q01DX009 (ip), vehicle: water) 5 of 6; (dose: 200.0 mg/kg/injection, schedule: Q01DX009 (ip), vehicle: water) 6 of 6; (dose: 400.0 mg/kg/injection, schedule: Q01DX009 (ip), vehicle: water) 3 of 6.

The values above are taken from PubChem BioAssay AID248 (DTP/NCI, 2004).
